# Laboratory results reported in the supplement of paper PMC10849652.
# Protein sequences, listed by entry. Tags and fused reporters are not part of them. Lines headed by an entry give the natural chain unless they say otherwise; changes in a name come on top.
# UniProt Q7L4I2: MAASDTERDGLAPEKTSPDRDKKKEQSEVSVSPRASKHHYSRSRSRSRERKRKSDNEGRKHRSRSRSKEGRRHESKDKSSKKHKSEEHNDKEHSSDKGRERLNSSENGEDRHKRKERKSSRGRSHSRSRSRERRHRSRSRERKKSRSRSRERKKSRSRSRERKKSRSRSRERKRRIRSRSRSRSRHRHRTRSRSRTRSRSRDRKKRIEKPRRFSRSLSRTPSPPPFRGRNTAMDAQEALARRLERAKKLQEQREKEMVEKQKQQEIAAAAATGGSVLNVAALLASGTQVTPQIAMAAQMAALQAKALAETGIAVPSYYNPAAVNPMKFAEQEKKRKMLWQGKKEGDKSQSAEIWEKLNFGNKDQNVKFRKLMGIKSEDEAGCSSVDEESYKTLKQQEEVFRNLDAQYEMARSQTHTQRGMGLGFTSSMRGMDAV
# UniProt Q14151: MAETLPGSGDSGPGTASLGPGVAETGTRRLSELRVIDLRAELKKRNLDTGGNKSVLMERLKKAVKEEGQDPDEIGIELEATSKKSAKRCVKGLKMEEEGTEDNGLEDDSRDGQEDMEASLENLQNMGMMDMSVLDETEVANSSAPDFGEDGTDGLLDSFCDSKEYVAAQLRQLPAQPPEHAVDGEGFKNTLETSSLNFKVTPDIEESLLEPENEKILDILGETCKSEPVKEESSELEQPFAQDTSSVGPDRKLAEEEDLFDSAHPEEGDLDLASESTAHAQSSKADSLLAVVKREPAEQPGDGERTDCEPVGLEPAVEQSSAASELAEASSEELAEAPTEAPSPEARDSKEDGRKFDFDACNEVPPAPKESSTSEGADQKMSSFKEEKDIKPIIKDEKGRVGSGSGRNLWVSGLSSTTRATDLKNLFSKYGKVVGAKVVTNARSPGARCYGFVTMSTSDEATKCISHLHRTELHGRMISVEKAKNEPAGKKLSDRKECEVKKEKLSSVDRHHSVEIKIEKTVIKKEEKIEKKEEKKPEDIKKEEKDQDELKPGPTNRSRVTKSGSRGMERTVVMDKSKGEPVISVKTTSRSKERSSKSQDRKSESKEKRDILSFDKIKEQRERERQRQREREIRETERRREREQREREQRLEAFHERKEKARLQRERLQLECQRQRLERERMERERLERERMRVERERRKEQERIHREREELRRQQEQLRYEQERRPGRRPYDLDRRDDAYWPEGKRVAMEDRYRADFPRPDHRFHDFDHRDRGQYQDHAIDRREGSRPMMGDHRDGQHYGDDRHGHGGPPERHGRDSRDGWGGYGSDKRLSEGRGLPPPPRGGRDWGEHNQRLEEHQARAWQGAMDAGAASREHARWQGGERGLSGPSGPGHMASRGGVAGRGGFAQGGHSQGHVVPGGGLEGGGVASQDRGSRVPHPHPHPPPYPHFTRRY
# UniProt Q96DX4: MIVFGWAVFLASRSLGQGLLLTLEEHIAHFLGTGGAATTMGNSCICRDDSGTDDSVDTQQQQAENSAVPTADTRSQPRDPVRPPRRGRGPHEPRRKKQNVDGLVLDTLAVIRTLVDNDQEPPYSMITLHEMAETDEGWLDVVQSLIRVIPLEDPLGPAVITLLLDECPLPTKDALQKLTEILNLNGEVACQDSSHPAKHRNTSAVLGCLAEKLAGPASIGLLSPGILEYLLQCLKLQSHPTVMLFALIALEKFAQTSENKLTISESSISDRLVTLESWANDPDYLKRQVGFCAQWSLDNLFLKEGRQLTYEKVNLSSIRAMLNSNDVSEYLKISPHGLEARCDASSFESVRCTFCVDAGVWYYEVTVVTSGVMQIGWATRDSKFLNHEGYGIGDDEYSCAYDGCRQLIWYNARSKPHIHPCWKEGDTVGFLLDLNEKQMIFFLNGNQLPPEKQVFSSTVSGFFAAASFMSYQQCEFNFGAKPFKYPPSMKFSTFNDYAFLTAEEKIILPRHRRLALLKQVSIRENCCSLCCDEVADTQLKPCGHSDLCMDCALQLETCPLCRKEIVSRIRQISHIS
# UniProt Q5VUM1: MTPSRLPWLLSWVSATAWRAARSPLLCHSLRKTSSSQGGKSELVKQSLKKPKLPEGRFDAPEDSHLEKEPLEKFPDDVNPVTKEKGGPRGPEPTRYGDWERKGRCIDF
# UniProt Q9BY42: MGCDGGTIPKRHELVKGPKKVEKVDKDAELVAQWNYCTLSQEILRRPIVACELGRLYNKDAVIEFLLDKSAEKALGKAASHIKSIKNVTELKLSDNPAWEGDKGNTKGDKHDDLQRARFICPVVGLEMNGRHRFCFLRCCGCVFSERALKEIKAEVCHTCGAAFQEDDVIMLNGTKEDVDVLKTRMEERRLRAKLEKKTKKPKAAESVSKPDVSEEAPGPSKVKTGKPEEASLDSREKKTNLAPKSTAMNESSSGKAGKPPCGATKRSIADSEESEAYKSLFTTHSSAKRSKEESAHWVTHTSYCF
# UniProt Q9Y6Y8: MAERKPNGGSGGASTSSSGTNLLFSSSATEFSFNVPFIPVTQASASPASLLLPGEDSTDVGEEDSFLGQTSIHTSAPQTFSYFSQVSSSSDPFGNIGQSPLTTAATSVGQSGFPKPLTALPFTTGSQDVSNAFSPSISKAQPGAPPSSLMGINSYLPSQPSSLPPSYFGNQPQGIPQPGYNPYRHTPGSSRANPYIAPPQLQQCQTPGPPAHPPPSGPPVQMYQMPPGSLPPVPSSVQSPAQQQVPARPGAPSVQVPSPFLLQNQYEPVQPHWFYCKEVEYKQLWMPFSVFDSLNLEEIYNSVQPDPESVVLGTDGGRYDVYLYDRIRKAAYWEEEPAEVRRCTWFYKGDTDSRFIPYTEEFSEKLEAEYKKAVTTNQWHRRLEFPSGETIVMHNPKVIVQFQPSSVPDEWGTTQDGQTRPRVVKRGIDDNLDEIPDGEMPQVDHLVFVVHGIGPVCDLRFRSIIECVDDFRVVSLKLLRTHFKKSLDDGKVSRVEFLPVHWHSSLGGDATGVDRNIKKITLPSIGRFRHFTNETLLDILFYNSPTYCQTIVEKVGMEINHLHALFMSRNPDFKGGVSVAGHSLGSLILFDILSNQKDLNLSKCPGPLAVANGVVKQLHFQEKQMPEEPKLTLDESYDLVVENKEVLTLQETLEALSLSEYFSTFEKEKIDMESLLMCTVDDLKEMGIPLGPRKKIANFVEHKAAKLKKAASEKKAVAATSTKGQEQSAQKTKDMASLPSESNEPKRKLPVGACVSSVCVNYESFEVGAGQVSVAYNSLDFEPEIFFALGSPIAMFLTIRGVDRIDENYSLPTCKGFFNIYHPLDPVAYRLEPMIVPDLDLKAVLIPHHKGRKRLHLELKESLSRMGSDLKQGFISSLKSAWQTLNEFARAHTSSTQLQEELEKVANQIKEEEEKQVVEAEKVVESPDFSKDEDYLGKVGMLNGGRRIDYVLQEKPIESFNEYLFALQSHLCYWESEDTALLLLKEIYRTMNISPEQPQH
# UniProt Q8NBX0: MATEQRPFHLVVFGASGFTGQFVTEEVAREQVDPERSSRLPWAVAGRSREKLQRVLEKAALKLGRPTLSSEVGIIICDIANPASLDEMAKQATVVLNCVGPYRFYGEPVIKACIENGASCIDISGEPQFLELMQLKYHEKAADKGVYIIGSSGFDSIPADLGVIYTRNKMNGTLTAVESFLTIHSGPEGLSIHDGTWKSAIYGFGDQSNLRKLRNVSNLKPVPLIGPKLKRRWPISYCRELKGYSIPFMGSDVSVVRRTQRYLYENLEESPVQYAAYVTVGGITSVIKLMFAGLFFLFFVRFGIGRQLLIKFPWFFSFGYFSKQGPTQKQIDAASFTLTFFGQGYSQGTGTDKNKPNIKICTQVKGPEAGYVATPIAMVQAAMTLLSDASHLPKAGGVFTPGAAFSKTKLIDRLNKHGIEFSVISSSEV
# UniProt Q15436: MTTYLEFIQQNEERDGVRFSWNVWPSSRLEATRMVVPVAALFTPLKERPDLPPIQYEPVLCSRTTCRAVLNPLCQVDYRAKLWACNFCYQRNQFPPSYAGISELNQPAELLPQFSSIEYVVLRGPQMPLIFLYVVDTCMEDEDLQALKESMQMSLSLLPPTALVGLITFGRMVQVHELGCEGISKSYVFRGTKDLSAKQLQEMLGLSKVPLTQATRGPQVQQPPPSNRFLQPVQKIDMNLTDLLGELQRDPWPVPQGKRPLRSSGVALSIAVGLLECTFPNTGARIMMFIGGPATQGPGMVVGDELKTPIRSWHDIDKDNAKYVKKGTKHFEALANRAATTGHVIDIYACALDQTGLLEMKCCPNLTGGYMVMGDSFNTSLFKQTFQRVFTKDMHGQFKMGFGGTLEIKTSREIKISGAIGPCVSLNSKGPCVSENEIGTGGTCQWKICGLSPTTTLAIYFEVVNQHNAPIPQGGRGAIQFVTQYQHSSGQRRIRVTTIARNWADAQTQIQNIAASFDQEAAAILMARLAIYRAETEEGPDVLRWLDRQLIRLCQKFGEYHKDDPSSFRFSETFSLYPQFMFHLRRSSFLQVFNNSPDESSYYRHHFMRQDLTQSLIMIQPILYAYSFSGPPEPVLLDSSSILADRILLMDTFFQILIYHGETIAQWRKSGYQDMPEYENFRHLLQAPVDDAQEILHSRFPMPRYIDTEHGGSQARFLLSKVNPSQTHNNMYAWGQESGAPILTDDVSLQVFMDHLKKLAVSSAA
# UniProt O14828: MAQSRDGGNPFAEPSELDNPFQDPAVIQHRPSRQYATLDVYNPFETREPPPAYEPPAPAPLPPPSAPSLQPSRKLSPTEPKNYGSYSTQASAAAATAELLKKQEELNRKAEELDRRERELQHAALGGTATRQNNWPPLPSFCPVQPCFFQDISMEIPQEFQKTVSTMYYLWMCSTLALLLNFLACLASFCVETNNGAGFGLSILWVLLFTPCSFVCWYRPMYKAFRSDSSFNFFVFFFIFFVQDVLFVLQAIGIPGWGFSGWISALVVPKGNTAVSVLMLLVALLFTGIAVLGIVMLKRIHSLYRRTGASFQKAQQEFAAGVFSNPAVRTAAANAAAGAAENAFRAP
# UniProt Q96IZ7: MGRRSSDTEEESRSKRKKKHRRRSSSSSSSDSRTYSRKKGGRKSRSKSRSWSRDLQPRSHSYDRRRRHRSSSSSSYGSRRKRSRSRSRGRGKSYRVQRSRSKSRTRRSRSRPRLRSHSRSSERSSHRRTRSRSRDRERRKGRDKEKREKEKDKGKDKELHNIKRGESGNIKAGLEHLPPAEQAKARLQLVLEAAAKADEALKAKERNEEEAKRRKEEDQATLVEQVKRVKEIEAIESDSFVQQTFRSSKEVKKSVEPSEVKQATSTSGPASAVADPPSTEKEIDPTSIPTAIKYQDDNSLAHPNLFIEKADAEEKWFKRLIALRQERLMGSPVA
# UniProt O94885: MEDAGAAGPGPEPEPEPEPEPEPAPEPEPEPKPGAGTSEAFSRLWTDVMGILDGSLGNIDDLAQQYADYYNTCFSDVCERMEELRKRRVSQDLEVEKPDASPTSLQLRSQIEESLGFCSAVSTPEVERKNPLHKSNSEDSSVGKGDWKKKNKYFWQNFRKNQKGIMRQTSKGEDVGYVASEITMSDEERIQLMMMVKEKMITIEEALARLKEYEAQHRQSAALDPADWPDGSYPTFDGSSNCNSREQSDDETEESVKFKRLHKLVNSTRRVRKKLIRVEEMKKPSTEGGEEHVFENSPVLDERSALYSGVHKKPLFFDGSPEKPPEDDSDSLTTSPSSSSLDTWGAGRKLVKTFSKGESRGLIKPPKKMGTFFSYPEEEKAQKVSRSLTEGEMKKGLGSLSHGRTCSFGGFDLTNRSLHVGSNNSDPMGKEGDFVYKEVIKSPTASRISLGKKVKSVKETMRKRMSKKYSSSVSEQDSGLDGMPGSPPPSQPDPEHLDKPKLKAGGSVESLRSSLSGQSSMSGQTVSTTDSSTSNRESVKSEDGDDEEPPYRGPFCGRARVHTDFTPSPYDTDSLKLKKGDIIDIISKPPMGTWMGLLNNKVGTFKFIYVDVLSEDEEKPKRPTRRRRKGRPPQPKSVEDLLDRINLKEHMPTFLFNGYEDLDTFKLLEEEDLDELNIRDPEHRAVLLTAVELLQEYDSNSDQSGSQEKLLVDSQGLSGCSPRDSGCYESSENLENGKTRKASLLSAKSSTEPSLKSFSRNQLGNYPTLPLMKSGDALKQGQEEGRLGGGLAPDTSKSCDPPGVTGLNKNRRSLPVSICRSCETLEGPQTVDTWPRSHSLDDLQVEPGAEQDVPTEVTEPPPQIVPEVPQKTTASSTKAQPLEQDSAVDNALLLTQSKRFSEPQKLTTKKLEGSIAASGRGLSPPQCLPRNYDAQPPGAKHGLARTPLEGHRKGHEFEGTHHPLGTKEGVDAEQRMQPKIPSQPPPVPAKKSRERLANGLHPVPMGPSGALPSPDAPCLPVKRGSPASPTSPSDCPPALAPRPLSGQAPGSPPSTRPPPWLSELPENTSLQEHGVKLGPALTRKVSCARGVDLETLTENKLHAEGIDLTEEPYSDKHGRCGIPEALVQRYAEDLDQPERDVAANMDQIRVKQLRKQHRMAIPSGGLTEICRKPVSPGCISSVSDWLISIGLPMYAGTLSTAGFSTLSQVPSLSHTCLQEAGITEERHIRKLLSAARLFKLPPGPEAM
# Some of the results follow.
# Compound: CC[C@H](C)N1C=C(C2=C(C=C(C=C21)C3=CN=C(C=C3)N4CCNCC4)C(=O)NCC5=C(C=C(NC5=O)C)C)C
# Experiment: log2 fold change, soluble protein after heating vs DMSO (PISA); higher = thermal stabilisation; K562 cells, 10 uM, 30 min; active = over 0.2 and 3.5 SD of the protein, either way, in both replicates (recomputed)
# In short: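 Thermal stability values are relative to control samples and come from duplicates. They are expressed as log2 fold changes. For measurement, K562 cells (2×10^6 cells/mL) received 10 μM compound for 30 min, and aliquots were heated for 3 min over 48°C-58°C, pooled, and extracted at 4°C in PBS with 0.5% NP-40. Soluble protein, the supernatant after 21,000xg for 90 min, was quantified by TMTpro 16plex LC-MS/MS with equalised channel sums.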
row,Target,log2 fold change
1,RSRC2 (UniProt Q7L4I2),inactive: -0.022
2,SAFB2 (UniProt Q14151),inactive: -0.022
3,RSL1D1 (UniProt O76021),inactive: 0.012
4,RSPRY1 (UniProt Q96DX4),inactive: -0.019
5,SDHC (UniProt Q99643),inactive: -0.1
6,SDHAF4 (UniProt Q5VUM1),inactive: -0.045
7,RTF2 (UniProt Q9BY42),inactive: 0.003
8,SEC23IP (UniProt Q9Y6Y8),inactive: 0.032
9,SCAF11 (UniProt Q99590),inactive: -0.092
10,SCCPDH (UniProt Q8NBX0),inactive: -0.06
11,RRP9 (UniProt O43818),inactive: -0.049
12,SCG3 (UniProt Q8WXD2),inactive: -0.013
13,SEC23A (UniProt Q15436),inactive: 0.1
14,SCAMP3 isoform 2 (UniProt O14828),inactive: -0.096
15,RRP12 (UniProt Q5JTH9),inactive: 0.029
16,RSRC1 (UniProt Q96IZ7),inactive: -0.041
17,SASH1 (UniProt O94885),inactive: 0.044

# Individual results from the entries so far.
# log2 fold change with SEC23IP (UniProt Q9Y6Y8) reads inactive: 0.032
# log2 fold change with RRP9 (UniProt O43818) reads inactive: -0.049
